This is an account of results in paper PMC8748641.

By UniProt entry, the sequences of proteins in these tests, tags left out. Where a name states a change or a piece, a line headed by the entry shows the natural chain unless it says otherwise.
UniProt Q94KK6: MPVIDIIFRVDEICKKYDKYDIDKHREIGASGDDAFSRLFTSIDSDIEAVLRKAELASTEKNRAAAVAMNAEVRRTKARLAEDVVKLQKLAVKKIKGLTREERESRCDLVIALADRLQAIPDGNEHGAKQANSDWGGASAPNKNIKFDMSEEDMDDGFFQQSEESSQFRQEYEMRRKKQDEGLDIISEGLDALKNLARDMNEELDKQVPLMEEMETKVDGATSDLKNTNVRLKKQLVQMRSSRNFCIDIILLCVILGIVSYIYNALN

These are yes or no findings as the source states them, for the method shown. In cells and extracts the contact can be indirect. Binding calls can cover weak binding; strength is not graded here. Where a sequence is shown, tags or fusion partners need not be part of it.

For the assay, the target named is MBP-SYP72 (Arabidopsis thaliana) (UniProt Q94KK6). The experiment in a line: pull-down; MBP-SYP72 from E. coli on Ni-NTA His Bind resin; MSL8-6×Myc in total protein of infiltrated N. benthamiana leaves; blots with anti-MBP and anti-Myc; only the target purified.

B1: MSL8-6×Myc (35S:MSL8-6×Myc, N. benthamiana leaves) (protein, UniProt F4IME2 1-908)
chain: MDFRNSFKSHSSYKQIRSPGDQSEPSPEHLPILHDHHPDHSGMVVDDQKPDSTRSSLDDGRNAPVERDASYKFWQDNTTGTSTDHTAVRTSDKDPIAISRKGDRLSGSFDFVHGKLPVDESPTKMVAGEPVNRQWRGRNNEEITLDVDQENDDVSHQTMPTPTSTARTSFDASREMRVSFNVRRAGGAFVAGSVPSSSSHSSSSSSATMRTNQDQPQLQEEEVVRCTSNMSFQRKSELISRVKTRSRLQDPPREEETPYSGWRSGQLKSGLLADIDEEDDPLAEEDVPDEYKRGKLDAITLLQWLSLVAIIAALACSLSIQSWKKVRVWNLHLWKWEVFLLVLICGRLVSGWGIRIVVFFIERNFLLRKRVLYFVYGVRRAVQNCLWLGLVLLAWHFLFDKKVQRETRSRFLPYVTKILVCFLLSTILWLIKTLVVKVLASSFHVSTYFDRIQEALFNQYVIETLSGPPMIEMSRIEEEEERAQDEIFKMQNAGANLPPDLCAAAFPPGKSGRVMNPKLSPIIPKSTTDNGISMEHLHRMNHKNISAWNMKRLMKIVRNVSLTTLDEQMLESTYEDESTRQIRSEKEAKAAARKIFKNVEQRGAKYIYLEDLMRFLREDEAMKTMGLFEGAPENKRISKSALKNWLVNAFRERRALALTLNDTKTAVNKLHHMINIVTAIVIVVIWLVLLEIASSKVLLFVSSQVVLLAFIFGNTVKTVFESIIFLFIVHPYDVGDRCEIDSVQLVVEEMNILTTVFLRYDNLKIMYPNSLLWQKSINNYYRSPDMGDAIEFCVHITTPLEKISVIKQRISNYIDNKPEYWYPQAKIIVKDLEDLHIVRLAIWPCHRINHQDMAERWTRRAVLVEEVIKILLELDIQHRFYPLDINVRTMPTVVSSRVPPGWSQNQPA
For B1, the binding result is “binds”.
